Measured values from paper PMC10746543, “Design principles for cyclin K molecular glue degraders” (Nature Chemical Biology, 2023).

Tested on: HEK293T cells
Experiment: Drug sensitivity assay (CellTiter-Glo viability) with or without MLN4924 pretreatment
Format: cell-based
Settings: Homo sapiens, HEK-293T, 72 h, read-out: Cellular assays EC50 [nM]
Method: HEK293T–Cas9 cells were resuspended at 0.15 × 10^6 ml^−1 treated with DMSO or 100 nM MLN4924 and plated on 384-well plates. After 2 h, the indicated drugs were dispensed with a D300 digital dispenser (Tecan). After 3 days of drug exposure, cell viability was assessed using the CellTiter-Glo luminescent assay (Promega, G7572) on an CLARIOstar Plus, MARS 3.4 (BMG LabTech). Cell viabilities were calculated relative to DMSO controls.

SMILES: CCc1cnn2c(NCc3ccc[n+]([O-])c3)cc(N3CCCC[C@H]3CCO)nc12 [Dinaciclib]
- EC50: 17 nM
